Source: patent US12410245 (UNIVERSITY OF VIRGINIA PATENT FOUNDATION, dated 2025)
These are yes or no findings as the source states them, for the method shown. Some results given as binding are weak or reduced against the parent protein; the word gives no strength.

Protein sequences, listed by entry. Tags and fused reporters are not part of them. Lines headed by an entry give the natural chain unless they say otherwise; changes in a name come on top. Chains listed by the source or under a name are the forms on record and can include a tag or linker. Residues count along the entry.
UniProt P11276, residues 33-2477: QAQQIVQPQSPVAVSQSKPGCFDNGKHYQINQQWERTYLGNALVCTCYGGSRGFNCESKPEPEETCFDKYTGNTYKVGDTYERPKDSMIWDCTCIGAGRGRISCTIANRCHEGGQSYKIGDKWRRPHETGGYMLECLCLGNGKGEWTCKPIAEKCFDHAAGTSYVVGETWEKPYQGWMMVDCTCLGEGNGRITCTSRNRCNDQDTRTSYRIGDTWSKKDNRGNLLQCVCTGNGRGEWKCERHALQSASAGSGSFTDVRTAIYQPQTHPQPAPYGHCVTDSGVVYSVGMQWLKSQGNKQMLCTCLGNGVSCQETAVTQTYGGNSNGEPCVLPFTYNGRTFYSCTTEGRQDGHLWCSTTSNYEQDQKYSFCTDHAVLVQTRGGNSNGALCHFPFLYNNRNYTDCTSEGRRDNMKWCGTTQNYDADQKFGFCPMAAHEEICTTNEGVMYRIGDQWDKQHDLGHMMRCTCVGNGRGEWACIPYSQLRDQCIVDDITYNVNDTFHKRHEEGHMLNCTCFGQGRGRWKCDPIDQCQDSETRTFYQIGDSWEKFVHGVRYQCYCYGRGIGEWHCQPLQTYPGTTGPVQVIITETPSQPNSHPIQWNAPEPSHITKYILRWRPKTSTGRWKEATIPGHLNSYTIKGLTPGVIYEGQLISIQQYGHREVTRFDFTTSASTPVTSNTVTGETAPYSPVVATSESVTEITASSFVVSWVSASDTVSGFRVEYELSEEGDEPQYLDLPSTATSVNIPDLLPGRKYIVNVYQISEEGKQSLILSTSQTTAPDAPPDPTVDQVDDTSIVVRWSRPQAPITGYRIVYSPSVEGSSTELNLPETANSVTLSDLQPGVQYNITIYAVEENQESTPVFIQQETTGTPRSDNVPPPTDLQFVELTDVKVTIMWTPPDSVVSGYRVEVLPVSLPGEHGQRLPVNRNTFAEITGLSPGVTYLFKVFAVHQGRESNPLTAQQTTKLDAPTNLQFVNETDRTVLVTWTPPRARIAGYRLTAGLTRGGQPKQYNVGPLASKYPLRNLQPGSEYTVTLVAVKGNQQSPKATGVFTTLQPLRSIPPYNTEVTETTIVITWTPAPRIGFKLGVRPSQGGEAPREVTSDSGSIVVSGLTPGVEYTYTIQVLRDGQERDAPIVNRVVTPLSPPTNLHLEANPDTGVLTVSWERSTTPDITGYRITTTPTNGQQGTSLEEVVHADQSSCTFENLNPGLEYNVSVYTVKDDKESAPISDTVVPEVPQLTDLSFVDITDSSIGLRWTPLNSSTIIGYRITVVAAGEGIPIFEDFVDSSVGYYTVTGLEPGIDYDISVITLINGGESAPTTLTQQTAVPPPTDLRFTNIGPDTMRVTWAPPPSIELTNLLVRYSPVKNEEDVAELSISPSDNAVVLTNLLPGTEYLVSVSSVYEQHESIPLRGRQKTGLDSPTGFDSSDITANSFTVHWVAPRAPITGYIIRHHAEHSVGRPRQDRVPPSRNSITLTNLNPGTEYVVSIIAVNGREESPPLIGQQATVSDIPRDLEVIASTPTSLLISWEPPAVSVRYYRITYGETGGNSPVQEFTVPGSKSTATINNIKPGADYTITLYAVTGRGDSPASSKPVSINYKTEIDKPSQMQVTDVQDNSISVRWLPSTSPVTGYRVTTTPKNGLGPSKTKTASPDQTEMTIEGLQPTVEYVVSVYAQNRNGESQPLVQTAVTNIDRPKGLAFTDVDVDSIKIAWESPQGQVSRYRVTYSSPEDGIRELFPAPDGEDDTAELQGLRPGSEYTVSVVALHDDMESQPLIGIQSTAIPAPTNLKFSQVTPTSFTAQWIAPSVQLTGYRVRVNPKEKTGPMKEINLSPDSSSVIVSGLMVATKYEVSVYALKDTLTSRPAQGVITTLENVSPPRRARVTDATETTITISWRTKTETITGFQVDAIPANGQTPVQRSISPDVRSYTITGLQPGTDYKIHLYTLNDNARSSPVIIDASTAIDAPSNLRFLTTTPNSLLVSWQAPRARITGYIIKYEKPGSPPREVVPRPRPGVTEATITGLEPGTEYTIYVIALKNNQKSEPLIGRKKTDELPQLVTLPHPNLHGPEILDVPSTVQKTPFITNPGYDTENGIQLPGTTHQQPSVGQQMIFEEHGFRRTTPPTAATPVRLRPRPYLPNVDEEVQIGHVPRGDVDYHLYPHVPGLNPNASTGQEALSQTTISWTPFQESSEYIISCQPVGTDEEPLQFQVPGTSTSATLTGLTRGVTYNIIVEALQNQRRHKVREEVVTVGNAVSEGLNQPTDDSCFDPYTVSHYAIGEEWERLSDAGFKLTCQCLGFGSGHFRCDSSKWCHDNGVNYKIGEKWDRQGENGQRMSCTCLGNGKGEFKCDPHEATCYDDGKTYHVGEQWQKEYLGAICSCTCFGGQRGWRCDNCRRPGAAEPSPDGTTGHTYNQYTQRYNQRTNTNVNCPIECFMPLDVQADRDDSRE
UniProt P02769, residues 25-607: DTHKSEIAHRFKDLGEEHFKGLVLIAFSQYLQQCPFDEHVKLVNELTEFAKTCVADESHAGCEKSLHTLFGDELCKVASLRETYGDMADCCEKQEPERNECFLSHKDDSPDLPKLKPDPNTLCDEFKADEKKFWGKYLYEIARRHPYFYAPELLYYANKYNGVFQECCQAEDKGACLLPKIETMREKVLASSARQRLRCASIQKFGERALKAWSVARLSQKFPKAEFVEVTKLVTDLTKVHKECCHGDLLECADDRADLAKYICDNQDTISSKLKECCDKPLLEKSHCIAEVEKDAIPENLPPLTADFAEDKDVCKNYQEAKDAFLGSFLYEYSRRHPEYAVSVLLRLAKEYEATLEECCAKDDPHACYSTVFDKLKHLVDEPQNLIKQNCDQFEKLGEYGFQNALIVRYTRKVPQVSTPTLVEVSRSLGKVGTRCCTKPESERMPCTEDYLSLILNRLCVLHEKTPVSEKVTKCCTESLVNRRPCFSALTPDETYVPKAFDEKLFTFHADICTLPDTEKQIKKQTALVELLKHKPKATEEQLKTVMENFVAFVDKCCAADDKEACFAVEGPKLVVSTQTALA
FnIII6-9 (P02751-1, form named): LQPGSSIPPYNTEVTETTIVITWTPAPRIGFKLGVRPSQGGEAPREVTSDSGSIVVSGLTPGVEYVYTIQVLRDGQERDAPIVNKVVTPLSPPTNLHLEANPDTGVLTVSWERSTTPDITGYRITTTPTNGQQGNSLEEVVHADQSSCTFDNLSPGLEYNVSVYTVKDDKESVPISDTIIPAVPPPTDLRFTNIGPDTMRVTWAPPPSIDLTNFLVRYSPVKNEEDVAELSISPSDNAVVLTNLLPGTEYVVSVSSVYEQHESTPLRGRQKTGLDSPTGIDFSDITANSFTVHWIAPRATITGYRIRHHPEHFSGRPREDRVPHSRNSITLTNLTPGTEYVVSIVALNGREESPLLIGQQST

Legend:
[1] = molecular target: fibrillar fibronectin in mouse tissue (lung sections, postnatal retina) (mouse) (UniProt P11276); assay: immunofluorescence on frozen mouse lung tissue sections
[2] = molecular target: BSA (bovine) (UniProt P02769); assay: ELISA of H5 on plates coated with the protein
[3] = molecular target: fibrillar fibronectin in mouse tissue (lung sections, postnatal retina) (mouse) (UniProt P11276); assay: whole mount immunostaining of postnatal mouse retina
[4] = molecular target: T1, FnIII6-9 (UniProt P02751-1 1085-1446, limits assumed); assay: SPR, Fn fragments immobilized
T1 construct: domain: FnIII6-9; also called FnIII9 (FnIII6-9); Fn fragment including the 9th type III repeat

B1: H5 scFv (scFv)
scFv: EVQLLESGGGLVQPGGSLRLSCAASGFTFSSYAMSWVRQAPGKGLEWVSDIYDGGGTNYADSVKGRFTTSRDNSKNTLYLQMNSLRAEDTAVYYCAKTADNFDYWGQGTLVTVSSGGGGSGGGGSGGGGSTDIQMTQSPSSLSASVGDRVTITCRASQSISSYLNWYQQKPGKAPKLLIYAASTLQSGVPSRFSGSGSGTDFTLTISSLQPEDFATYYCQQANSAPTTFGQGTKVEIKRAAA
notes: Soluble scFv from E. coli, purified by Protein-A; also called clone H5; H5 antibody
binding [1]: binds | binding [2]: no binding (tested: 1 µg coating protein) | binding [3]: binds | binding [4]: binds
